Measurements reported in PubChem BioAssay AID1224826 (NIAID, 2016)
Here is a random part of about 17,000 deposited reagents. In the full data, about 1,110 (6.6%) are marked active. 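Active means lowered or raised reporter signal; replicate intensities are raw and not normalised per plate.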 Further read-outs or replicates are left out here. No sequences are given here.

Purpose: 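Genes that change LPS-induced Tnf promoter activity in mouse macrophages when knocked down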 (primary screen)
Cells: RAW264.7 G9 macrophages from mouse bearing reporters for p65 (GFP) and the Tnf promoter (mCherry)
Reagent: siRNA pool against mouse genes, 100 nM
Time to read-out: 16 h of LPS stimulation, after 2 days of siRNA transfection
Treatment: bacterial lipopolysaccharide (Salmonella minnesota R595), 10 ng/ml
Measurement: 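Imaged Tnf reporter mCherry in nuclei, minus background, normalised per plate to the median and expressed as robust z-scores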
Scale: Tnf reporter robust z-score: higher = stronger Tnf promoter reporter signal after LPS
Rule for the call: 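Called active when robust z-score is at most -1.3, matching the median of the Tlr4 knock-down control, or over 3; control wells and wells with under 50 cells never active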
Calls: active = Tnf reporter clearly lowered or raised; inactive = no clear change in Tnf reporter

no.	gene knocked down	PubChem SID	Tnf reporter robust z-score	fewer than 50 cells in well	call
1	Akap11 (GeneID 219181)	SID315478248	-0.36	enough cells in well	inactive
2	Tdp2 (GeneID 56196)	SID315471393	-1.12	enough cells in well	inactive
3	Traf3ip2 (GeneID 103213)	SID315476366	0.12	enough cells in well	inactive
4	Or4g17 (GeneID 258379)	SID315480064	3.7	enough cells in well	active
5	Cep43 (GeneID 75296)	SID315475098	-0.33	enough cells in well	inactive
6	Nit1 (GeneID 27045)	SID315470518	0.11	enough cells in well	inactive
7	Gxylt2 (GeneID 232313)	SID315478975	-1.32	enough cells in well	active
8	Kank4 (GeneID 242553)	SID315479623	0.08	enough cells in well	inactive
9	Gm4793 (GeneID 215714)	SID315477948	-1.57	enough cells in well	active
10	Ift172 (GeneID 67661)	SID315473150	-0.39	enough cells in well	inactive
11	Nrip1 (GeneID 268903)	SID315480810	-0.33	enough cells in well	inactive
12	Abca3 (GeneID 27410)	SID315470618	1.44	enough cells in well	inactive
13	Rbm48 (GeneID 269623)	SID315480872	-0.02	enough cells in well	inactive
14	Cant1 (GeneID 76025)	SID315475230	0.97	enough cells in well	inactive
15	Tbxa2r (GeneID 21390)	SID315469600	-0.49	enough cells in well	inactive
16	Ddx50 (GeneID 94213)	SID315476054	2.38	enough cells in well	inactive
17	Ssty1 (GeneID 20611)	SID315469349		fewer than 50 cells per well; well left out of calls	inactive
18	Il22b (GeneID 116849)	SID315477064	-1.1	enough cells in well	inactive
19	Chst1 (GeneID 76969)	SID315475424	0.52	enough cells in well	inactive
20	Cd79b (GeneID 15985)	SID315467402	0.61	enough cells in well	inactive
21	Pak4 (GeneID 70584)	SID315474090	-0.72	enough cells in well	inactive
22	Fgf2os (GeneID 329626)	SID315481538	-0.73	enough cells in well	inactive
23	Adamts19 (GeneID 240322)	SID315479497	1.33	enough cells in well	inactive
24	Or7g18 (GeneID 258559)	SID315480226	2.52	enough cells in well	inactive
25	Ube2k (GeneID 53323)	SID315471043	-0.27	enough cells in well	inactive
26	Skint11 (GeneID 230623)	SID315478799	0.04	enough cells in well	inactive
27	Ephb4 (GeneID 13846)	SID315466530	0.48	enough cells in well	inactive
28	Hnrnph2 (GeneID 56258)	SID315471421	-0.73	enough cells in well	inactive
29	Perp (GeneID 64058)	SID315472058	-1.07	enough cells in well	inactive
30	Ksr1 (GeneID 16706)	SID315467708	-0.17	enough cells in well	inactive
31	Atrx (GeneID 22589)	SID315470063	-0.28	enough cells in well	inactive
32	Pla2g6 (GeneID 53357)	SID315471053	0.3	enough cells in well	inactive
33	Ocln (GeneID 18260)	SID315468284	0.07	enough cells in well	inactive
34	Ssu72 (GeneID 68991)	SID315473691	-0.61	enough cells in well	inactive
35	Tubg2 (GeneID 103768)	SID315476392	-0.63	enough cells in well	inactive
36	Cfap410 (GeneID 67884)	SID315473286	0.55	enough cells in well	inactive
37	Acta1 (GeneID 11459)	SID315465266	0.87	enough cells in well	inactive
38	Rab26 (GeneID 328778)	SID315481492	-0.55	enough cells in well	inactive
39	Baiap2l2 (GeneID 207495)	SID315477484	-0.56	enough cells in well	inactive
40	Pgam1 (GeneID 18648)	SID315468484	0.73	enough cells in well	inactive

An excerpt from the list above, as a working copy:
no.	gene knocked down	PubChem SID	Tnf reporter robust z-score	fewer than 50 cells in well	call
10	Ift172 (GeneID 67661)	SID315473150	-0.39	enough cells in well	inactive
11	Nrip1 (GeneID 268903)	SID315480810	-0.33	enough cells in well	inactive
12	Abca3 (GeneID 27410)	SID315470618	1.44	enough cells in well	inactive
13	Rbm48 (GeneID 269623)	SID315480872	-0.02	enough cells in well	inactive
14	Cant1 (GeneID 76025)	SID315475230	0.97	enough cells in well	inactive
